From patent US20130216533A1, “BIOLOGICAL MARKERS FOR IDENTIFYING PATIENTS FOR TREATMENT WITH VEGF ANTAGONISTS” (Genentech, Inc., priority 2012, published 2013)
At least one compound was matched to its structure with a doubt left.

Key:
[1] = test system: MDA-MB-231 tumor vasculature; assay: Micro-vascular density (MVD) histology in MDA-MB-231 tumors; format: in vivo, mouse; settings: 72 hours after treatment, MECA-32 (PLVAP) and CD31 staining
[2] = test system: proxVDV genes in MDA-MB-231 xenograft tumors; assay: qRT-PCR gene expression in MDA-MB-231 xenograft tumors 8, 16 or 72 hours after VEGF/VEGFR-2 inhibitors; format: in vivo, mouse; settings: MDA-MB-231 tumors, 8 hours after treatment

SMILES | MVD in tumors [1] | change in (proxVDV) gene expression [2] | change in (proxVDV) gene expression ([2]; listed as Axitinib)
CCN(CC)CCNC(=O)c1c(C)[nH]c(/C=C2\C(=O)Nc3ccc(F)cc32)c1C [sunitinib] | efficiently reduces MVD |  | 
CNC(=O)c1ccccc1Sc1ccc2c(/C=C/c3ccccn3)n[nH]c2c1 [axitinib] | efficiently reduces MVD | No significant changes | did not have evident activity
